The experiment has as its target HA-tagged rhoptry protein TGME49_202200 (Toxoplasma gondii). Kind of experiment: co-IP.

These are yes or no findings as the source states them, for the method shown. In cells and extracts the contact can be indirect.

B1: Complement Component 1q Binding Protein (C1QBP), mouse (protein, UniProt O35658 71-278)
chain: LHTEGDKAFVEFLTDEIKEEKKIQKHKSLPKMSGDWELEVNGTEAKLLRKVAGEKITVTFNINNSIPPTFDGEEEPSQGQKAEEQEPERTSTPNFVVEVTKTDGKKTLVLDCHYPEDEIGHEDEAESDIFSIKEVSFQATGDSEWRDTNYTLNTDSLDWALYDHLMDFLADRGVDNTFADELVELSTALEHQEYITFLEDLKSFVKNQ
For B1, the binding entry is “no binding”.

Source of the values: doi:10.1101/2022.03.21.485090.
